The source of these data is the supplement of paper PMC10849652.

Protein sequences, listed by entry. Tags and fused reporters are not part of them. Lines headed by an entry give the natural chain unless they say otherwise; changes in a name come on top.
UniProt Q9UIY3: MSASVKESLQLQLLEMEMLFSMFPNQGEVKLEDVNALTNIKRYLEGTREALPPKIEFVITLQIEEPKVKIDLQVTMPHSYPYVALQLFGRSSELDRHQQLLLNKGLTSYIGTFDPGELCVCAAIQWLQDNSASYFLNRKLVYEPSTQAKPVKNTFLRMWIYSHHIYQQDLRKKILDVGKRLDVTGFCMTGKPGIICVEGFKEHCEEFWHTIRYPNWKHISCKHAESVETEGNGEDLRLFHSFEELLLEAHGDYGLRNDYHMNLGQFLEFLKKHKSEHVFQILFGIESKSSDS
UniProt P05387, whole entry, looked up: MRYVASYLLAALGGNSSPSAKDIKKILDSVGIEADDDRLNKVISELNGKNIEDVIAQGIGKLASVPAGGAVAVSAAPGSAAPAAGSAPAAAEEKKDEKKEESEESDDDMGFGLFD
UniProt Q15418, whole entry, looked up: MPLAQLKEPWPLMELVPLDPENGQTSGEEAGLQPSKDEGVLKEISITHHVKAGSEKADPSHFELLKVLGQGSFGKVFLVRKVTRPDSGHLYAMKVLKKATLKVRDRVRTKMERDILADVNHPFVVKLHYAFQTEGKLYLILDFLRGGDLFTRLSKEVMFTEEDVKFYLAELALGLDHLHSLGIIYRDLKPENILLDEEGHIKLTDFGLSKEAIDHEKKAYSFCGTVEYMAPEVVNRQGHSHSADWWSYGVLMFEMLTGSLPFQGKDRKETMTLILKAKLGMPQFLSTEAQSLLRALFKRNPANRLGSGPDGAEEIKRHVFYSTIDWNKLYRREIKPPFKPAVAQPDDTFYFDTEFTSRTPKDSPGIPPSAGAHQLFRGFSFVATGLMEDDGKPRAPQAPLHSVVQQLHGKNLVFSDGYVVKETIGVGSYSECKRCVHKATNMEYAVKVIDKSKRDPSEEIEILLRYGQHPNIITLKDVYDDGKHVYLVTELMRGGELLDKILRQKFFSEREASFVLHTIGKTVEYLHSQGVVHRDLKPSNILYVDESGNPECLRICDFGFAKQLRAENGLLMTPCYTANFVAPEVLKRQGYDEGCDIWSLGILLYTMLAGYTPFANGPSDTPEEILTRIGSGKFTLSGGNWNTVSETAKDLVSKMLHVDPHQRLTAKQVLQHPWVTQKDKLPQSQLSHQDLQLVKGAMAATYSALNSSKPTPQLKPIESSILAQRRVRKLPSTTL
UniProt P51812, whole entry, looked up: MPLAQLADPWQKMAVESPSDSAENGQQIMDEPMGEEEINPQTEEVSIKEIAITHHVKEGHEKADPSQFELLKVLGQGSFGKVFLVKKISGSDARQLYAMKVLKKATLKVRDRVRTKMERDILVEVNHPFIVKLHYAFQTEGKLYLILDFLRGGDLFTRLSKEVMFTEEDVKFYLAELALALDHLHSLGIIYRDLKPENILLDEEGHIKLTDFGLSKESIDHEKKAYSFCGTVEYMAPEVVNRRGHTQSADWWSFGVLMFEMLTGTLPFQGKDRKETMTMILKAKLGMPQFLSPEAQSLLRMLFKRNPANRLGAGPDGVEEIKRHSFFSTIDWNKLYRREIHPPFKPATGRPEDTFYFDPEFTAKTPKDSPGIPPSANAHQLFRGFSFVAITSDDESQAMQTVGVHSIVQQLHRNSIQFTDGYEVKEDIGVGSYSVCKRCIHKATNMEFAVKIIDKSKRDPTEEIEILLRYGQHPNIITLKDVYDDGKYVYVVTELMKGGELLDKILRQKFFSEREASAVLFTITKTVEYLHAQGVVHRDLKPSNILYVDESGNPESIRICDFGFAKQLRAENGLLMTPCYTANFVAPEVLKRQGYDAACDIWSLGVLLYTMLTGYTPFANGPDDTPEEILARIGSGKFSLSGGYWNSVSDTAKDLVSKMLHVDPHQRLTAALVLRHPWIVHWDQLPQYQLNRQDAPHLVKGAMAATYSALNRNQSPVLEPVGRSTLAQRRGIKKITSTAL
UniProt O00442: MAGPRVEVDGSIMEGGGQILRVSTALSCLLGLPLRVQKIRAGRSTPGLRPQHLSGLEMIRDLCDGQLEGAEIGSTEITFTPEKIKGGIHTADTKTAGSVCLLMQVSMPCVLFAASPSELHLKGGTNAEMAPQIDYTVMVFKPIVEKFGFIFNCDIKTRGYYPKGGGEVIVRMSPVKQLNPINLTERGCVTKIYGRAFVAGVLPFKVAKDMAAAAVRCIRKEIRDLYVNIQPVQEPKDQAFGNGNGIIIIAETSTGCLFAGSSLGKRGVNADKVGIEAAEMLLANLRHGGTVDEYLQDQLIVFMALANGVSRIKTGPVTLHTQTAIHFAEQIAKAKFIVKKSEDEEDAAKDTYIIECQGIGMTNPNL
UniProt Q96T23: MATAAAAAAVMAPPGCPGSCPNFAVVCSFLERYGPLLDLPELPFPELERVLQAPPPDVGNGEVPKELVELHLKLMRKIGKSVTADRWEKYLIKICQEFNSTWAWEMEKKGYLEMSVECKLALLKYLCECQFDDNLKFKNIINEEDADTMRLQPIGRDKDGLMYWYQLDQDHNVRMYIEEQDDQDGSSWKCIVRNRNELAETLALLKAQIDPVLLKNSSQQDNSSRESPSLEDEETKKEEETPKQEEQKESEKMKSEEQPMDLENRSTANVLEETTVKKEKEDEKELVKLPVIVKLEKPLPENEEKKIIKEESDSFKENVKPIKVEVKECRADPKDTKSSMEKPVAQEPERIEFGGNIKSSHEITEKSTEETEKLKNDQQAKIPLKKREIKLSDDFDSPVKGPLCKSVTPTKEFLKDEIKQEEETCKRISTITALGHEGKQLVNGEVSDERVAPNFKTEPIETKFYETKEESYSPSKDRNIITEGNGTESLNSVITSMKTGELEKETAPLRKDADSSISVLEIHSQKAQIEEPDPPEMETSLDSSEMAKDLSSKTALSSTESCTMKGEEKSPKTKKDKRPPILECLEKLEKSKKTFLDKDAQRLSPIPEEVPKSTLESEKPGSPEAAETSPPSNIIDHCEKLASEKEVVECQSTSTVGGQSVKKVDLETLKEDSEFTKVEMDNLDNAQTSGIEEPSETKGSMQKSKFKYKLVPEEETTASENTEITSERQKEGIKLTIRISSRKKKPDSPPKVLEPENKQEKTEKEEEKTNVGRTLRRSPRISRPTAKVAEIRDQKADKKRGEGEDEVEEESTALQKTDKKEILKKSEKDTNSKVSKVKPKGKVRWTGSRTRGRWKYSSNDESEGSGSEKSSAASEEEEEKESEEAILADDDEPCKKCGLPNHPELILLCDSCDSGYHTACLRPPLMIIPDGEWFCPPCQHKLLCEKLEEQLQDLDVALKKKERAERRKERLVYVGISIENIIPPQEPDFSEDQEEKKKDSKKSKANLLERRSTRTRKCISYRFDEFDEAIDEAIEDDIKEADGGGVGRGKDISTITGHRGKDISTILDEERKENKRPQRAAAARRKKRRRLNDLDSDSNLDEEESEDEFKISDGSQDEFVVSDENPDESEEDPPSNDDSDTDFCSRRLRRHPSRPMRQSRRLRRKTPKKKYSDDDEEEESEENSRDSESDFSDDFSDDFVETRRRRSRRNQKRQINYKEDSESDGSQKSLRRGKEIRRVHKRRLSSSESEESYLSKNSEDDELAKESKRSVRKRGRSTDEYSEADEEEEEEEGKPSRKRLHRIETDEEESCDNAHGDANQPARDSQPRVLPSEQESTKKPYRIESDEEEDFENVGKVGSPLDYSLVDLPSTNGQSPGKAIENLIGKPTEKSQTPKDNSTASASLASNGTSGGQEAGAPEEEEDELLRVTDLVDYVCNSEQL
UniProt O75298: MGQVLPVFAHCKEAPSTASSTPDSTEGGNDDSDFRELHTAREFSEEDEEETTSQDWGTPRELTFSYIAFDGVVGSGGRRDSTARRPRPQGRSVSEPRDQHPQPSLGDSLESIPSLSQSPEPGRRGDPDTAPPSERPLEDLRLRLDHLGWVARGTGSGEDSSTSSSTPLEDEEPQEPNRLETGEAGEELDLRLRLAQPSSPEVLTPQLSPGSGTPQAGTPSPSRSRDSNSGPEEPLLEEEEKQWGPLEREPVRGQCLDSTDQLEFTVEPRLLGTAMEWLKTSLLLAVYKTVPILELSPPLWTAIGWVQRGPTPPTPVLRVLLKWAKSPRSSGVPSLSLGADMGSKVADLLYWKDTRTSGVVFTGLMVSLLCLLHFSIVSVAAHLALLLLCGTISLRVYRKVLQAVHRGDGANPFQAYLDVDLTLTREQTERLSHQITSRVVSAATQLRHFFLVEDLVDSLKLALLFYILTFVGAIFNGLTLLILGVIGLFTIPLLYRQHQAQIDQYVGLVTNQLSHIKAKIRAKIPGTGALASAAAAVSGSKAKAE
UniProt P05386, whole entry, looked up: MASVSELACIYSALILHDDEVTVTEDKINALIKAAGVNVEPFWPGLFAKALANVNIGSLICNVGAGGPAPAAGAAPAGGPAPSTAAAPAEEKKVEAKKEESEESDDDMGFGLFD
UniProt O75818: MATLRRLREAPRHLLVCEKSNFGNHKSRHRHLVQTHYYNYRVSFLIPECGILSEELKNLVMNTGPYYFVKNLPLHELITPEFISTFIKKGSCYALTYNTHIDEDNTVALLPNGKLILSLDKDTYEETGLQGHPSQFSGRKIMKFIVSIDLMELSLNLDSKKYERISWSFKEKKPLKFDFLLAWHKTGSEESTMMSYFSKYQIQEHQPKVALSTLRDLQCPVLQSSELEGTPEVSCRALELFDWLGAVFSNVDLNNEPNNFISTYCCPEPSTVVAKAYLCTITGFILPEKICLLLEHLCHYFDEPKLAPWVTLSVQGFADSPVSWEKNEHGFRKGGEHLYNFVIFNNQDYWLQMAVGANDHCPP
UniProt P78345: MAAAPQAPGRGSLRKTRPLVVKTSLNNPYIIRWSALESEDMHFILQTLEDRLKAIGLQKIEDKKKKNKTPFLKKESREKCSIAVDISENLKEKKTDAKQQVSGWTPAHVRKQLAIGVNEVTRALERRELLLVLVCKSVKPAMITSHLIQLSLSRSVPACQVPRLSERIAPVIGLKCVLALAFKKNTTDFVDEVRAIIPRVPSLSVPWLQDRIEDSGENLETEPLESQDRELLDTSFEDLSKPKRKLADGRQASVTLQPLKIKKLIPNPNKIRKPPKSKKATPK
UniProt P57060: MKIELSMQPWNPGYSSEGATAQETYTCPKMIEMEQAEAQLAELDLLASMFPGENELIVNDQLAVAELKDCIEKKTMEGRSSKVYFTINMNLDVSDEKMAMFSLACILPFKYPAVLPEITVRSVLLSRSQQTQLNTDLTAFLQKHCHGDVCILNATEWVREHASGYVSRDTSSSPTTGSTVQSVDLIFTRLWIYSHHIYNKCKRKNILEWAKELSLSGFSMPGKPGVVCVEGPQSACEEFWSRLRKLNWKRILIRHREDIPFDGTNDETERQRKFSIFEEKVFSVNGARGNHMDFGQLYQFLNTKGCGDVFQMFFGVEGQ
UniProt Q8IZ73: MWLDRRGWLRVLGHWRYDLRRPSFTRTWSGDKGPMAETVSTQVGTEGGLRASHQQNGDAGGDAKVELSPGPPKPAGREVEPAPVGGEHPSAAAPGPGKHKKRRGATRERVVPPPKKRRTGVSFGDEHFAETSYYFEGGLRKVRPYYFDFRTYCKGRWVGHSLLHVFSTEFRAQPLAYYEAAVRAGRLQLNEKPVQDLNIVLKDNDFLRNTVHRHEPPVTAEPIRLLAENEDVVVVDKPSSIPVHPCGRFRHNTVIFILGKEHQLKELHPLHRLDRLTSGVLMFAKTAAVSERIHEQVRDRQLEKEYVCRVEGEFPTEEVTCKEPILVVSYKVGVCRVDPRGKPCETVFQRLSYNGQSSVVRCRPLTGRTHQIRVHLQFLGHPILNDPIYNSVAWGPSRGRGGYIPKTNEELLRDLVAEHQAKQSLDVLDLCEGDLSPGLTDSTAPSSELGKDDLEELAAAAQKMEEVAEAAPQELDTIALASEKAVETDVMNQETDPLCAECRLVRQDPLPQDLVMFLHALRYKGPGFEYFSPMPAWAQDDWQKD

Assay in all cases: log2 fold change, soluble protein after heating vs DMSO (PISA); higher = thermal stabilisation; K562 lysate, 10 uM; active = over 0.2 and 3.5 SD of the protein, either way, in both replicates (recomputed)
Compound in assay [1]: NCC(=O)Nc1ccc(-n2nc(C(F)(F)F)cc2-c2ccc3c(ccc4ccccc43)c2)cc1
A digest of the protocol: (§1)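 Following dounce homogenisation of K562 pellets in PBS pH 7.4 with 1 mM MgCl2, crude extract at 1 mg/mL protein was incubated for 30 min with 10 μM compound. Aliquots were then heated for 3 min over 48°C-58°C and pooled, NP-40 was added to 0.5% at 4°C, and soluble protein was recovered as the supernatant at 21,000xg for 90 min. Channel-sum-equalised TMTpro 16plex LC-MS/MS quantified this protein. Each value, from duplicates, is a log-two fold change in thermal stability relative to solvent controls.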

Compound in another assay: O=C(CCCCCCC(=O)Nc1ccccc1)NO [vorinostat]
The method in brief: as §1

Compound in another assay: O=C(O)c1ccc2c(c1)nc(Nc1cccc(Cl)c1)c1ccncc12 [silmitasertib]
The method in brief: as §1

Compound in assay [2]: O=C1NC(=O)C(c2cnc3ccccn23)=C1c1cn2c3c(cc(F)cc13)CN(C(=O)N1CCCCC1)CC2
A digest of the protocol: as §1

Compound in a further assay: c1cn2cc(-c3ccc4cn[nH]c4c3)nc(Nc3ccc(N4CCOCC4)cc3)c2n1 [entospletinib]
The method in brief:
as §1

Some of the results follow.

For the target RWDD2A (UniProt Q9UIY3), the log2 fold change in assay [1] is inactive: -0.114; in the assay with vorinostat, inactive: 0.113; with silmitasertib, inactive: -0.044; in assay [2], inactive: 0.016; with entospletinib, inactive: 0.017.
Consider RPL4 (UniProt P36578), for which the log2 fold change in assay [1] is inactive: -0.015; with vorinostat, inactive: 0.079; with silmitasertib, inactive: 0.021; in assay [2], inactive: -0.001; with entospletinib, inactive: 0.007.
Turning to RPS24 isoform 4 (UniProt P62847), the log2 fold change in assay [1] was inactive: -0.023; with vorinostat, inactive: 0.137; with silmitasertib, inactive: 0.018; in assay [2], inactive: 0.012; with entospletinib it was inactive: 0.004.
For the target RPLP2 (UniProt P05387), the log2 fold change in assay [1] was inactive: 0.013; with vorinostat, inactive: 0.157; with silmitasertib, inactive: -0.017; in assay [2] it was inactive: -0.024; in the assay with entospletinib, inactive: -0.029.
In the case of RPS6KA1 (UniProt Q15418), the log2 fold change in assay [1] was inactive: 0.014; with vorinostat, inactive: -0.157; with silmitasertib it was active: 0.553; in assay [2], inactive: 0.123; with entospletinib it was inactive: -0.038.
Consider RPS28 (UniProt P62857), for which the log2 fold change in assay [1] was inactive: 0.01; with vorinostat, inactive: 0.108; with silmitasertib, inactive: 0.018; in assay [2] it was inactive: -0.026; in the assay with entospletinib, inactive: -0.051.
As for RPS6KA3 (UniProt P51812), the log2 fold change in assay [1] was inactive: -0.017; in the assay with vorinostat, inactive: -0.384; with silmitasertib, inactive: 0.362; in assay [2], inactive: 0.181; in the assay with entospletinib, inactive: -0.052.
For RTCA (UniProt O00442) the same measures were inactive: 0.001, inactive: 0.072, inactive: -0.022, inactive: 0.022 and inactive: -0.009.
The corresponding values for RPS13 (UniProt P62277) are inactive: 0.01, inactive: 0.077, inactive: 0.038, inactive: 0.06 and inactive: -0.024.
On to RPS11 (UniProt P62280), for which the log2 fold change in assay [1] was inactive: 0.012; with vorinostat it was inactive: 0.06; with silmitasertib, inactive: 0.028; in assay [2], inactive: 0.018; with entospletinib, inactive: 0.002.
For RSF1 (UniProt Q96T23), the log2 fold change in assay [1] was inactive: -0.04; in the assay with vorinostat, inactive: 0.119; with silmitasertib, inactive: -0.097; in assay [2] it was inactive: 0.022; with entospletinib, inactive: -0.033.
Consider RTN2 (UniProt O75298), for which the log2 fold change in assay [1] was inactive: -0.025; with vorinostat, inactive: 0.079; in the assay with silmitasertib, inactive: 0; in assay [2] it was inactive: -0.05; with entospletinib it was inactive: 0.032.
Turning to RPL7 (UniProt P18124), the log2 fold change in assay [1] is inactive: 0.027; in the assay with vorinostat it was inactive: 0.127; in the assay with silmitasertib, inactive: -0.026; in assay [2] it was inactive: 0.035; in the assay with entospletinib, inactive: 0.018.
In the case of RPLP1 (UniProt P05386), the log2 fold change was inactive: -0.037 in assay [1]; inactive: 0.16 in the assay with vorinostat; inactive: -0.054 with silmitasertib; inactive: 0.005 in assay [2]; inactive: 0.029 with entospletinib.
For RPS6 (UniProt P62753) the same measures were inactive: -0.021, inactive: 0.043, inactive: 0.026, inactive: 0.034 and inactive: 0.001.
Turning to S100A6 (UniProt P06703), the log2 fold change in assay [1] was inactive: 0.064; with vorinostat, inactive: 0.136; with silmitasertib it was inactive: -0.036; in assay [2], inactive: -0.071; with entospletinib, inactive: -0.005.
With RPP40 (UniProt O75818), the log2 fold change is inactive: -0.037 in assay [1]; inactive: 0 in the assay with vorinostat; inactive: -0.006 with silmitasertib; inactive: -0.013 in assay [2]; inactive: -0.028 in the assay with entospletinib.
Consider RPP38 (UniProt P78345), for which the log2 fold change in assay [1] was inactive: 0.028; with vorinostat it was inactive: 0.041; in the assay with silmitasertib it was inactive: 0; in assay [2] it was inactive: 0.012; with entospletinib it was inactive: -0.026.
With RPS18 (UniProt P62269), the log2 fold change is inactive: 0.033 in assay [1]; inactive: 0.081 with vorinostat; inactive: 0.019 with silmitasertib; inactive: 0.007 in assay [2]; inactive: -0.02 in the assay with entospletinib.
As for RPS27L (UniProt Q71UM5), the log2 fold change in assay [1] is inactive: -0.002; in the assay with vorinostat it was inactive: 0.085; with silmitasertib, inactive: -0.012; in assay [2], inactive: 0.019; with entospletinib, inactive: 0.026.
On to RPS15 (UniProt P62841), for which the log2 fold change was inactive: 0.036 in assay [1]; inactive: 0.156 in the assay with vorinostat; inactive: -0.009 in the assay with silmitasertib; inactive: -0.011 in assay [2]; inactive: 0.051 in the assay with entospletinib.
Take RWDD2B (UniProt P57060): the log2 fold change in assay [1] was inactive: 0.093; with vorinostat it was inactive: 0.011; with silmitasertib it was inactive: -0.037; in assay [2], inactive: -0.06; with entospletinib it was inactive: 0.06.
For RPL36AL (UniProt Q969Q0) the same measures were inactive: -0.056, inactive: 0.124, inactive: 0.011, inactive: 0.131 and inactive: -0.001.
As to RPS10 (UniProt P46783), the log2 fold change is inactive: 0.036 in assay [1]; inactive: 0.071 in the assay with vorinostat; inactive: 0.028 in the assay with silmitasertib; inactive: 0.013 in assay [2]; inactive: -0.034 with entospletinib.
On to RPUSD2 (UniProt Q8IZ73), for which the log2 fold change in assay [1] was inactive: 0.043; in the assay with vorinostat, inactive: 0.09; with silmitasertib, inactive: -0.027; in assay [2], inactive: 0.005; with entospletinib, inactive: -0.002.
